These are yes or no findings as the source states them, for the method shown. Some binding calls cover weakened binding; strength is not graded here. Tags and fused reporters may be left off the sequences shown.
Molecular target: T1, His-tagged AtYefM co-expressed with AtYoeB from the pET-Duet vector (Agrobacterium tumefaciens strC58) (UniProt Q7CY23)
T1 sequence: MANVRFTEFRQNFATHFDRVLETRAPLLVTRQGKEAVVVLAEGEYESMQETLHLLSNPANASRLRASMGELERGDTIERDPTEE
Test: SEC

B1: AtYoeB co-expressed with His-AtYefM from the pET-Duet vector (natural protein)
chain: MKLVWTLSSWDDYEFWQRTDARMVEKINDLIRNAKRTPFAGLGKPEPLKGDMAGYWSRRITAEHRFVYRVSGSGSEQRLEVIQCRFHYQ
B1 was tested, and the binding was “binds”.
